Measurements published in the supplement of paper PMC12889115.
This is one part of the list. Values are raw readings; no control value is given beside them.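 Primary screen: polymyxin B was added at a level permeabilizing Salmonella outer membranes while sparing inner membranes. DMSO wells, both with and without polymyxin B, established maximum growth. Plate-to-plate variation meant each plate was ranked on its own, and the lowest-OD600 compounds were selected as hits.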

Test system: Salmonella enterica serovar Typhimurium SL1344
Assay: bacterial growth OD600 after 18 h with compound and polymyxin B; higher = more bacterial growth (less inhibition)
Conditions: 50 µM, Mueller-Hinton broth

SMILES	bacterial growth OD600 (polymyxin B 1 µg/mL)	bacterial growth OD600 (polymyxin B 0.75 µg/mL)
O=C(CCC1CCN(C(=O)CCc2cnccn2)CC1)Nc1ccc(F)c(Cl)c1	0.909	–
CO[C@H]1[C@H](NC(=O)c2ccncc2)c2ccccc2C12CCN(C(=O)C1(C)CCCCC1)CC2	–	0.534
CCCn1ncc(CN2CCCC(CCC(=O)Nc3ccccc3F)C2)c1C (configuration not stated)	1.18	–
c1cnc(N2CCOCC2)c(CNC2C3CC4CC(C3)CC2C4)c1 (configuration not stated)	0.811	–
CCCN(CCC)c1ccc(C(=O)N2CCCN(c3ncccn3)CC2)cn1	0.852	–
COc1ccc2cc(C(=O)C3CCCN(C(=O)C4CCCC4)C3)ccc2c1 (configuration not stated)	0.444	–
Cc1ccc2c(c1)CN(Cc1cnn(C)c1C)CC(c1ccsc1)O2 (configuration not stated)	–	0.067
FC(F)(F)c1ccc(-c2noc(CN3CCC(N4CCSCC4)CC3)n2)cc1	0.919	–
CC(C)CC(=O)Nc1ccnn1C1CCN(Cc2ccc(F)cc2Cl)CC1	–	0.457
Nc1ncc(CN2CCC(CO)(CCCc3ccccc3)CC2)cn1	–	0.906
O=C(c1cnc[nH]1)N1CCC(C2CCN(c3ncccn3)CC2)C1 (configuration not stated)	–	0.859
Cc1cc(CNCC2(O)CCCN(CC(C)(C)C)C2=O)no1 (configuration not stated)	–	0.784
CCn1ccnc1CNC1CC(=O)N(C2Cc3ccccc3C2)C1 (configuration not stated)	0.937	–
COCCNC(=O)c1ccc(OC)cc1OC1CCN(Cc2ccc(F)c(OC)c2)CC1	0.774	–
Cc1ccccc1N1CCN(C2CCCN(C(=O)Cn3nc4ccccc4n3)C2)CC1 (configuration not stated)	0.926	–
COCC1CCCN(C(=O)c2ccc(N(C)C)nc2)C1 (configuration not stated)	0.96	–

SMILES	bacterial growth OD600 (polymyxin B 1 µg/mL)	bacterial growth OD600 (polymyxin B 0.75 µg/mL)
COC(=O)c1c(S(=O)(=O)NCc2ccc(Cl)cc2)sc2c1CCN(C(=O)C1CCC1)C2	–	0.866
CC(C)c1nc(C(=O)N2CCOc3ccc(CN4CCN(c5ccc(F)cc5)CC4)cc3C2)cs1	–	0.562
CSc1cccc(CN2CCc3[nH]nc(-c4ccc5c(c4)OCO5)c3C2)c1	–	0.788
Cc1ccc(CC2(CCC(=O)N3CCC(C)CC3)CCC(=O)N2)cc1 (configuration not stated)	–	0.758
Cc1cccc(CNC(=O)c2cc(COc3cccc(C(F)(F)F)c3)on2)n1	0.007	–
O=CN1CCCN(C(=O)c2csc3nc(-c4cccc(F)c4)cn23)CC1	1.24	–
CCCCC1CN(CCNC(=O)c2c(F)cccc2Cl)Cc2ccccc2O1 (configuration not stated)	–	0.76
CN(C(=O)c1coc(COc2cccc(C(F)(F)F)c2)n1)C1CCOCC1	0.974	–
CC(C)(C)CN1CCC(N2CCC(C(=O)NCc3ccccn3)CC2)CC1	1	–
COc1cccc(-c2ccc(NC(=O)C3CCCN(Cc4cnn(C)c4C)C3)cc2)c1 (configuration not stated)	0.744	–
CCOC(=O)C1(Cc2ccc(Cl)cc2)CCN(C2CCCC2)CC1	0.9	–
O=C(Nc1cccc(-c2cccc(Cl)c2)c1)C1CCN(C(=O)CCn2cnnn2)CC1	0.712	–
CCOC(=O)C1(Cc2ccccc2C)CCCN(S(=O)(=O)c2c(C)n[nH]c2C)C1 (configuration not stated)	0.585	–
CC(C)N(C)Cc1nnnn1CC(=O)N1CCCC(OCc2ccccn2)C1 (configuration not stated)	–	0.807
COc1ccc(C(=O)Nc2ccnn2C2CCN(C(=O)C3CC34CCC4)CC2)cc1 (configuration not stated)	0.897	–
CC1=C(C(=O)N2CCCC(C(=O)c3cccc4ccccc34)C2)OCCO1 (configuration not stated)	0.795	–

2 entries from above, bar-delimited.
SMILES | bacterial growth OD600 (polymyxin B 1 µg/mL) | bacterial growth OD600 (polymyxin B 0.75 µg/mL)
FC(F)(F)c1ccc(-c2noc(CN3CCC(N4CCSCC4)CC3)n2)cc1 | 0.919 | –
CC(C)CC(=O)Nc1ccnn1C1CCN(Cc2ccc(F)cc2Cl)CC1 | – | 0.457
